# Data taken from the supplement of paper PMC8728848.
# The list shows a part of the results.
# How the values were obtained:
# Experiment in all cases: glycan array binding signal (z-score within array); higher = stronger binding
# Conditions in all cases: glycan notation: IUPAC condensed, linker removed
# [1] = biological target: Neu5Ac(a2-6)Gal(b1-4)GlcNAc(b1-2)Man(a1-3)[Man(a1-6)]Man(b1-4)GlcNAc(b1-4)GlcNAc
# Method in brief: (§1)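 Glycan array data came from 3228 arrays in the Consortium for Functional Glycomics database, and only arrays with an available protein sequence were kept. Glycan names were put into IUPAC-condensed notation, and columns mapping to the same glycan were averaged. The binding signal is a within-array Z-score, averaged across arrays of one protein sequence run at different concentrations or buffers and across linkers. A negative Z-score can be read as non-binding.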
# [2] = biological target: Neu5Ac(a2-6)Gal(b1-4)GlcNAc(b1-2)Man(a1-3)[Neu5Ac(a2-3)Gal(b1-4)GlcNAc(b1-2)Man(a1-6)]Man(b1-4)GlcNAc(b1-4)GlcNAc
# Method in brief: as §1
# [3] = biological target: Neu5Ac(a2-6)Gal(b1-4)GlcNAc(b1-2)Man(a1-3)[Neu5Ac(a2-6)Gal(b1-4)GlcNAc(b1-2)Man(a1-6)]Man(b1-4)GlcNAc(b1-4)GlcNAc
# Method in brief: as §1
# [4] = biological target: Neu5Ac(a2-6)Gal(b1-4)GlcNAc(b1-2)Man(a1-3)[Neu5Ac(a2-6)Gal(b1-4)GlcNAc(b1-2)Man(a1-6)]Man(b1-4)GlcNAc(b1-4)[Fuc(a1-6)]GlcNAc
# Method in brief: as §1
# [5] = biological target: Neu5Ac(a2-6)Gal(b1-4)GlcNAc(b1-2)Man(a1-6)Man(b1-4)GlcNAc(b1-4)GlcNAc
# Method in brief: as §1
# [6] = biological target: Neu5Ac(a2-6)Gal(b1-4)GlcNAc(b1-2)Man(a1-6)[Gal(b1-4)GlcNAc(b1-2)Man(a1-3)]Man(b1-4)GlcNAc(b1-4)GlcNAc
# Method in brief: as §1
# [7] = biological target: Neu5Ac(a2-6)Gal(b1-4)GlcNAc(b1-2)Man(a1-6)[GlcNAc(b1-2)Man(a1-3)]Man(b1-4)GlcNAc(b1-4)GlcNAc
# Method in brief: as §1
# [8] = biological target: Neu5Ac(a2-6)Gal(b1-4)GlcNAc(b1-2)Man(a1-6)[Man(a1-3)]Man(b1-4)GlcNAc(b1-4)GlcNAc
# Method in brief: as §1
# [9] = biological target: Neu5Ac(a2-6)Gal(b1-4)GlcNAc(b1-2)[Neu5Ac(a2-6)Gal(b1-4)GlcNAc(b1-4)]Man(a1-3)[GlcNAc(b1-4)][Neu5Ac(a2-6)Gal(b1-4)GlcNAc(b1-2)[Neu5Ac(a2-6)Gal(b1-4)GlcNAc(b1-6)]Man(a1-6)]Man(b1-4)GlcNAc(b1-4)GlcNAc
# Method in brief: as §1
# [10] = biological target: Neu5Ac(a2-6)Gal(b1-4)GlcNAc(b1-2)[Neu5Ac(a2-6)Gal(b1-4)GlcNAc(b1-4)]Man(a1-3)[GlcNAc(b1-4)][Neu5Ac(a2-6)Gal(b1-4)GlcNAc(b1-4)Man(a1-6)]Man(b1-4)GlcNAc(b1-4)GlcNAc
# Method in brief: as §1
# [11] = biological target: Neu5Ac(a2-6)Gal(b1-4)GlcNAc(b1-2)[Neu5Ac(a2-6)Gal(b1-4)GlcNAc(b1-6)]Man(a1-6)[Neu5Ac(a2-6)Gal(b1-4)GlcNAc(b1-2)Man(a1-3)][GlcNAc(b1-4)]Man(b1-4)GlcNAc(b1-4)GlcNAc
# Method in brief: as §1
# [12] = biological target: Neu5Ac(a2-6)Gal(b1-4)GlcNAc(b1-3)Gal(b1-3)GlcNAc
# Method in brief: as §1
# [13] = biological target: Neu5Ac(a2-6)Gal(b1-4)GlcNAc(b1-3)Gal(b1-4)GlcNAc
# Method in brief: as §1
# [14] = biological target: Neu5Ac(a2-6)Gal(b1-4)GlcNAc(b1-3)Gal(b1-4)GlcNAc(b1-2)Man(a1-3)[Neu5Ac(a2-6)Gal(b1-4)GlcNAc(b1-3)Gal(b1-4)GlcNAc(b1-2)Man(a1-6)]GalNAc
# Method in brief: as §1
# [15] = biological target: Neu5Ac(a2-6)Gal(b1-4)GlcNAc(b1-3)Gal(b1-4)GlcNAc(b1-3)Gal(b1-4)GlcNAc
# Method in brief: as §1
# [16] = biological target: Neu5Ac(a2-6)Gal(b1-4)GlcNAc(b1-3)Gal(b1-4)GlcNAc(b1-3)Gal(b1-4)GlcNAc(b1-2)Man(a1-3)[Neu5Ac(a2-6)Gal(b1-4)GlcNAc(b1-3)Gal(b1-4)GlcNAc(b1-3)Gal(b1-4)GlcNAc(b1-2)Man(a1-6)]GalNAc
# Method in brief: as §1
# [17] = biological target: Neu5Ac(a2-6)Gal(b1-4)GlcNAc(b1-3)Gal(b1-4)GlcNAc(b1-3)GalNAc
# Method in brief: as §1
# [18] = biological target: Neu5Ac(a2-6)Gal(b1-4)GlcNAc(b1-3)Gal(b1-4)GlcNAc(b1-3)[Neu5Ac(a2-6)Gal(b1-4)GlcNAc(b1-3)Gal(b1-4)GlcNAc(b1-6)]GalNAc
# Method in brief: as §1
# [19] = biological target: Neu5Ac(a2-6)Gal(b1-4)GlcNAc(b1-3)Gal(b1-4)GlcNAc(b1-6)[Gal(b1-3)]GalNAc
# Method in brief: as §1
# [20] = biological target: Neu5Ac(a2-6)Gal(b1-4)GlcNAc(b1-3)Gal(b1-4)[Fuc(a1-3)]GlcNAc(b1-3)Gal(b1-4)[Fuc(a1-3)]GlcNAc
# Method in brief: as §1
# [21] = biological target: Neu5Ac(a2-6)Gal(b1-4)GlcNAc(b1-3)GalNAc
# Method in brief: as §1
# [22] = biological target: Neu5Ac(a2-6)Gal(b1-4)GlcNAc(b1-3)[Neu5Ac(a2-6)Gal(b1-4)GlcNAc(b1-6)]GalNAc
# Method in brief: as §1
# [23] = biological target: Neu5Ac(a2-6)Gal(b1-4)GlcNAc(b1-6)GalNAc
# Method in brief: as §1
# [24] = biological target: Neu5Ac(a2-6)Gal(b1-4)GlcNAc(b1-6)[Gal(b1-3)GlcNAc(b1-3)]Gal(b1-4)Glc
# Method in brief: as §1
# [25] = biological target: Neu5Ac(a2-6)Gal(b1-4)GlcNAc(b1-6)[Gal(b1-3)]GalNAc
# Method in brief: as §1
# [26] = biological target: Neu5Ac(a2-6)Gal(b1-4)GlcNAc6S
# Method in brief: as §1
# Neu5Ac(a2-6)GalNAc = biological target: Neu5Ac(a2-6)GalNAc
# Method in brief: as §1
# [27] = biological target: Neu5Ac(a2-6)GalNAc(b1-4)GlcNAc
# Method in brief: as §1
# [28] = biological target: Neu5Ac(a2-6)GalNAc(b1-4)GlcNAc6S
# Method in brief: as §1
# [29] = biological target: Neu5Ac(a2-6)GlcNAc(b1-4)GlcNAc
# Method in brief: as §1
# [30] = biological target: Neu5Ac(a2-6)GlcNAc(b1-4)GlcNAc(b1-4)GlcNAc
# Method in brief: as §1
binder,measurement,setting,value
PX15642A-pgi-501-20-501 (Parabacteroides gingivalis) (protein) CELDRDPEGKDFQQPYTSFVQTKQNRDGLYALLRNTENPRMHFYQELQSDMYCTTITDGNSLAPFVNWDLGILNDHGRADEDEVSGIAGYYFVYNRLNQQANAFVNNTEAALQNQVYKNSTEIANAKSFLAEGKVLQALAIWRLMDRFSFHESVTEVNSGAKDLGVILLKEYNPGYIGPRATKAQCYDYILSRLSEAIEVLPENRESVLYVSRDYAYALRARIYLALGEYGKAAADAKMVVDKYPLIGAADASEFENIYRSDANNPEIIFRGFASATLGSFTATTLNGAAPAGKDIKYNPSAVPFQWVVDLYENEDFRKSVYIAKVVKKDKGYLVNKFLEDKAYRDVQDKPNLKVGARYFSVAEVYLILVESALQTGDTPTAEKYLKALSKARGAEVSVVNMEALQAERTRELIGEGSRLRDMVRWSIPNNHDAFETQPGLEGFANTTPLKAQAPVGFYAYTWEFPQRDRQTNPQLIKNWPI,glycan array binding signal (z-score),[1],-0.971
same,glycan array binding signal (z-score),[2],0.773
same,glycan array binding signal (z-score),[3],0.036
same,glycan array binding signal (z-score),[4],-0.924
same,glycan array binding signal (z-score),[5],0.401
same,glycan array binding signal (z-score),[6],-0.724
same,glycan array binding signal (z-score),[7],0.319
same,glycan array binding signal (z-score),[8],-0.607
same,glycan array binding signal (z-score),[9],0.098
same,glycan array binding signal (z-score),[10],0.114
same,glycan array binding signal (z-score),[11],-0.568
same,glycan array binding signal (z-score),[12],0.537
same,glycan array binding signal (z-score),[13],-0.221
same,glycan array binding signal (z-score),[14],0.657
same,glycan array binding signal (z-score),[15],0.644
same,glycan array binding signal (z-score),[16],2.23
same,glycan array binding signal (z-score),[17],-0.926
same,glycan array binding signal (z-score),[18],0.497
same,glycan array binding signal (z-score),[19],-0.139
same,glycan array binding signal (z-score),[20],-0.278
same,glycan array binding signal (z-score),[21],-0.516
same,glycan array binding signal (z-score),[22],-0.25
same,glycan array binding signal (z-score),[23],0.747
same,glycan array binding signal (z-score),[24],-0.099
same,glycan array binding signal (z-score),[25],-0.714
same,glycan array binding signal (z-score),[26],-0.049
same,glycan array binding signal (z-score),Neu5Ac(a2-6)GalNAc,-0.126
same,glycan array binding signal (z-score),[27],-0.81
same,glycan array binding signal (z-score),[28],0.286
same,glycan array binding signal (z-score),[29],0.131
same,glycan array binding signal (z-score),[30],-0.634

# Part of the list above, reformatted.
binder	measurement	setting	value
PX15642A-pgi-501-20-501 (Parabacteroides gingivalis) (protein) CELDRDPEGKDFQQPYTSFVQTKQNRDGLYALLRNTENPRMHFYQELQSDMYCTTITDGNSLAPFVNWDLGILNDHGRADEDEVSGIAGYYFVYNRLNQQANAFVNNTEAALQNQVYKNSTEIANAKSFLAEGKVLQALAIWRLMDRFSFHESVTEVNSGAKDLGVILLKEYNPGYIGPRATKAQCYDYILSRLSEAIEVLPENRESVLYVSRDYAYALRARIYLALGEYGKAAADAKMVVDKYPLIGAADASEFENIYRSDANNPEIIFRGFASATLGSFTATTLNGAAPAGKDIKYNPSAVPFQWVVDLYENEDFRKSVYIAKVVKKDKGYLVNKFLEDKAYRDVQDKPNLKVGARYFSVAEVYLILVESALQTGDTPTAEKYLKALSKARGAEVSVVNMEALQAERTRELIGEGSRLRDMVRWSIPNNHDAFETQPGLEGFANTTPLKAQAPVGFYAYTWEFPQRDRQTNPQLIKNWPI	glycan array binding signal (z-score)	[22]	-0.25
same	glycan array binding signal (z-score)	[23]	0.747
same	glycan array binding signal (z-score)	[24]	-0.099
same	glycan array binding signal (z-score)	[25]	-0.714
same	glycan array binding signal (z-score)	[26]	-0.049
same	glycan array binding signal (z-score)	Neu5Ac(a2-6)GalNAc	-0.126
same	glycan array binding signal (z-score)	[27]	-0.81
